Measurements reported in PMC6591222, “Phosphatidic acid homeostasis regulated by a type-2 phosphatidic acid phosphatase represents a novel druggable target in malaria intervention” (Cell Death Discovery, 2019).

Target: T1, PfPAP2 (type-2 phosphatidic acid phosphatase) (Plasmodium falciparum, UniProt A0A143ZY93)
T1 construct: gene PF3D7_0805600
Experiment: biochemical

In the case of `CC(C)NCC(O)COc1cccc2ccccc12` (stereo not shown) [Propranolol], the Kd is reported as 10 µM.
